This is an account of results in patent publication EP2310009B1, “PARENTERAL AND ORAL FORMULATIONS OF BENZIMIDAZOLES” (UNIVERSITY OF HOUSTON, priority 2008, dated 2010).

The nature of this data set: Homogeneity of 14C-Mbz distribution in rat organs. The settings on record: for Mean (CPM/0.2g): three sites.

For the molecule `COC(=O)Nc1nc2cc(C(=O)c3ccccc3)ccc2[nH]1` [Formulation 14C-Mbz], the “Site Variations (%) (n=3)” value is recorded as 7.96% (rat Brain); 14.02% (rat Heart); 3.01% (rat Kidneys); 3.44% (rat Liver); 5.67% (rat Lung); 5.15% (rat Spleen). Also, the “Mean (CPM/0.2g)” value (rat Brain) came out at 358.27 CPM/0.2g; the “Mean (CPM/0.2g)” value (rat Heart) is 1300.72 CPM/0.2g; the “Mean (CPM/0.2g)” value (rat Kidneys) is listed as 1192.13 CPM/0.2g; the “Mean (CPM/0.2g)” value (rat Liver) worked out at 41978.90 CPM/0.2g; the “Mean (CPM/0.2g)” value (rat Lung) is listed as 22429.33 CPM/0.2g; the “Mean (CPM/0.2g)” value (rat Spleen) is 31279.43 CPM/0.2g.
